Source: the supplement of paper PMC12889115
This is one part of the list. Values are raw readings; no control value is given beside them.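 In the initial screen, polymyxin B was used at a concentration that permeabilizes Salmonella's outer membrane but not its inner membrane. Maximum growth was set by DMSO wells with or without polymyxin B. Since plates varied, data were ranked per plate, and compounds giving the lowest OD600 advanced as hits.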

System: Salmonella enterica serovar Typhimurium SL1344
Assay: bacterial growth OD600 after 18 h with compound and polymyxin B; higher = more bacterial growth (less inhibition)
Details: 50 µM, Mueller-Hinton broth

| SMILES | bacterial growth OD600 (polymyxin B 1 µg/mL) | bacterial growth OD600 (polymyxin B 0.75 µg/mL) |
| --- | --- | --- |
| O=C(CC1CC1)NC1CC(=O)N(Cc2ccccc2C(F)(F)F)C1 (stereo unspecified) | 0.891 |  |
| COc1cc(F)ccc1CNCc1cccnc1N1CCOCC1 | 0.973 |  |
| COCC(=O)Nc1cc(C(=O)N2C[C@@H](C)O[C@@H](C)C2)c2c(c1)ncn2Cc1ccc(F)cc1 |  | 0.839 |
| COc1ccc(CCCN2C(=O)O[C@@H]3CN(C4CCCC4)C[C@@H]32)cc1 | 0.903 |  |
| c1nc(N2CCCC2)sc1CN1CCC2(CCCN(CC3CC3)C2)C1 (stereo unspecified) | 1.02 |  |
| Cc1ccc(C(=O)Nc2ccc(N3CCC(NCCCc4ccncc4)CC3)cc2)c(C)c1 |  | 0.726 |
| CC1CN(Cc2ccc3nsnc3c2)Cc2cc(Cl)ccc2O1 (stereo unspecified) |  | 0.037 |
| Cc1nn(C)c(C)c1CN(C)c1ccc(C(=O)NCc2noc(C(C)C)n2)cn1 | 1.23 |  |
| Cc1ncsc1CN(Cc1ccccc1)C(=O)C1CCC(=O)N(C2CC2)C1 (stereo unspecified) | 0.886 |  |
| CCOC(=O)C1(CCCc2ccccc2)CCN(C(=O)CCn2cncn2)CC1 | 0.812 |  |
| O=C(CCC(F)(F)F)N1CCc2[nH]nc(-c3ccc(F)c(F)c3)c2C1 |  | 0.949 |
| CCOCCCNC(=O)c1cc(NS(=O)(=O)N(C)C)cc2nc(CC(C)C)n(C)c12 |  | 0.922 |
| Cc1nc(C)c(CN2CC[C@@H](N3CCN(c4ccccn4)CC3)[C@H](O)C2)nc1C | 0.901 |  |
| CCn1nc(C)cc1C(=O)N1CCC(C2CCN(CC(C)C)CC2)C1 (stereo unspecified) |  | 0.806 |
| O=C1CCC(C(=O)N2CCS(=O)(=O)CC2)CN1CCCc1ccccc1 (stereo unspecified) | 0.953 |  |
| Cc1nc2ccc(C(=O)N(C)C3CCCN(Cc4ccccc4F)C3)cc2nc1C (stereo unspecified) | 0.895 |  |

Quoted from the listing:
Entry for Cc1nc(C)c(CN2CC[C@@H](N3CCN(c4ccccn4)CC3)[C@H](O)C2)nc1C under bacterial growth OD600 (polymyxin B 1 µg/mL): 0.901
Entry for O=C1CCC(C(=O)N2CCS(=O)(=O)CC2)CN1CCCc1ccccc1 (stereo unspecified) under bacterial growth OD600 (polymyxin B 1 µg/mL): 0.953

The results go on.

| SMILES | bacterial growth OD600 (polymyxin B 1 µg/mL) | bacterial growth OD600 (polymyxin B 0.75 µg/mL) |
| --- | --- | --- |
| COCCn1cc(C(=O)NCC2(c3ccccc3)CCCC2)c(=O)c(C(=O)N2CCCCC2)c1 |  | 0.8 |
| CCC(CC)C(=O)N1CCc2c(cnc(C)c2CNC(=O)c2ccoc2C)C1 |  | 0.797 |
| COc1ccccc1C(=O)N1CCC(CCC(=O)N2CCN(c3ccccc3)CC2)CC1 | 0.828 |  |
| COc1ccccc1Oc1ncccc1CNC(=O)CN1CCCCC1 |  | 0.961 |
| COC(=O)c1ccccc1C(=O)N1CCCC(CCC(=O)NCc2ccccc2Cl)C1 (stereo unspecified) | 1.08 |  |
| O=C(Nc1ccccc1Oc1cccnc1)C1CCCN1CC1CC1 (stereo unspecified) |  | 0.788 |
| COc1ccc(CNC(C)c2cnc(-c3ccncc3)nc2C)c(F)c1 (stereo unspecified) |  | 0.818 |
| NC(=O)C1(C(=O)N2CCCC(CCc3ccccc3C(F)(F)F)C2)CC1 (stereo unspecified) | 0.851 |  |
| Cc1ccccc1-c1cnc(-c2ccncc2)nc1C1CCCN(C(=O)/C=C/c2ccc(F)cc2)C1 (stereo unspecified) |  | 0.006 |
| COc1cc(C)ccc1OCc1nc(C(=O)NC(C)C2CC2)co1 (stereo unspecified) | 0.879 |  |
| CSc1nc(C(=O)N2CCc3c(cnc(C)c3CNC(=O)/C=C/c3ccccc3F)C2)cs1 |  | 0.507 |
| COc1cccc(-c2cc(CC3(O)CCN(CC4CCCCC4)CC3)on2)c1 | 0.929 |  |
| C=CCOc1ccccc1CN1CCOc2ccc(CN3CCC(O)(c4cccnc4)CC3)cc2C1 |  | 0.739 |
| CN(C)C(=O)c1ccc(N2CCC(NC3CCCc4ccccc43)CC2)cc1 (stereo unspecified) |  | 0.827 |
| Cc1nnc(SCCNC(=O)C2CCN(c3nc(C)c4cc(C(C)C)ccc4n3)CC2)s1 |  | 0.641 |
